Measured values as given in patent publication US20040048377A1.
No constants are given. Whether binding was seen depends on the method and setting. In cells and extracts the contact can be indirect. Some results given as binding are weak or reduced against the parent protein; the word gives no strength.

Chains of the proteins cited; added tags and fusions are not shown.
UniProt P47239: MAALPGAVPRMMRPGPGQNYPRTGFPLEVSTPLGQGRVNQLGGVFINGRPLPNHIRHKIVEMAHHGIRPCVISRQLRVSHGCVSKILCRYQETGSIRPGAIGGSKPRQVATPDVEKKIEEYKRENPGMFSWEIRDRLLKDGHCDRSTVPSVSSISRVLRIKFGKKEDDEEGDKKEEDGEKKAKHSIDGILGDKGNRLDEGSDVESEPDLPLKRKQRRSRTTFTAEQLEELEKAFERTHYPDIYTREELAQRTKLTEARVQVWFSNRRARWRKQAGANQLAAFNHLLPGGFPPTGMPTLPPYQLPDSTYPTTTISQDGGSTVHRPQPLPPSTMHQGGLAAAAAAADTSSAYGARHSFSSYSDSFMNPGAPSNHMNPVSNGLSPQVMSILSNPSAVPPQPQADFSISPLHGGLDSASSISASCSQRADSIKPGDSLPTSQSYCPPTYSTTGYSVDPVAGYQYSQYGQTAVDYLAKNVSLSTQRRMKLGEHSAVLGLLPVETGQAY
UniProt P16371: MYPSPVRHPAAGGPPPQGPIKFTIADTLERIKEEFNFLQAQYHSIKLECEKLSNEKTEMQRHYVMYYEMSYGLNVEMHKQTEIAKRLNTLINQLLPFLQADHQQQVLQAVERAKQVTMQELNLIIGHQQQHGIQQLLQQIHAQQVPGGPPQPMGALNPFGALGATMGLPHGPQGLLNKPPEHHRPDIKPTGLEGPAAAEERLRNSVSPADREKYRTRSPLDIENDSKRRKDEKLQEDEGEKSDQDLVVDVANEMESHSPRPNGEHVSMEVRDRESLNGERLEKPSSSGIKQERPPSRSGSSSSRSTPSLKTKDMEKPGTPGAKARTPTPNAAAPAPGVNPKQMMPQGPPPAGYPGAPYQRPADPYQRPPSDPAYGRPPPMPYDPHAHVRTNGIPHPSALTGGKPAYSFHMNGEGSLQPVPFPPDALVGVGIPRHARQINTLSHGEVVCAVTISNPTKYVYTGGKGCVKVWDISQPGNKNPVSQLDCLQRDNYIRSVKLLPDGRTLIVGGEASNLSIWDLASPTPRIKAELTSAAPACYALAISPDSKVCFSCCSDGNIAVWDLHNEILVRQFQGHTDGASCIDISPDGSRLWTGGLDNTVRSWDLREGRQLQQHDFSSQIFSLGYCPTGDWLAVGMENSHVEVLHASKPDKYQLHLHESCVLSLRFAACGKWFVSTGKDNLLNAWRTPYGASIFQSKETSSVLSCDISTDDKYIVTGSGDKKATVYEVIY

Legend:
[1] = target: T1, Grg5 (mGrg5) (mouse) (UniProt P63002); experiment: GST co-precipitation, 35S-labelled Grg5
T1 sequence (looked up): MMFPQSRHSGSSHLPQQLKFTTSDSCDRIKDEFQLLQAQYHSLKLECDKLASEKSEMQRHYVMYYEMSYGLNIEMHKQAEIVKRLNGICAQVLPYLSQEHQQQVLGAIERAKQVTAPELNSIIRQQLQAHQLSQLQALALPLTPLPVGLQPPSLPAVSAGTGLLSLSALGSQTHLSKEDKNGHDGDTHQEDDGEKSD

[2] = target: T2, Nkx2.9 (full-length, mNkx2.9) (mouse) (UniProt O70584); experiment: GST co-precipitation, GST-Gro on glutathione-sepharose beads, 35S-labelled Nkx protein
T2 sequence (looked up): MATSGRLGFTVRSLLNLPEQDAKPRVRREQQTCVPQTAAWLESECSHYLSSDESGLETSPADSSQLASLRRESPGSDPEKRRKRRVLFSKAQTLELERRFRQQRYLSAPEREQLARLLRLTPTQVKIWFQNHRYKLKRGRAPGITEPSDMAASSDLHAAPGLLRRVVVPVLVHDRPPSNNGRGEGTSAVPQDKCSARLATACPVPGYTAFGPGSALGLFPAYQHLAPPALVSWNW

[3] = target: T3, Nkx6.1 (full-length, rNkx6.1) (rat) (UniProt O35762); experiment: as above
T3 sequence (looked up): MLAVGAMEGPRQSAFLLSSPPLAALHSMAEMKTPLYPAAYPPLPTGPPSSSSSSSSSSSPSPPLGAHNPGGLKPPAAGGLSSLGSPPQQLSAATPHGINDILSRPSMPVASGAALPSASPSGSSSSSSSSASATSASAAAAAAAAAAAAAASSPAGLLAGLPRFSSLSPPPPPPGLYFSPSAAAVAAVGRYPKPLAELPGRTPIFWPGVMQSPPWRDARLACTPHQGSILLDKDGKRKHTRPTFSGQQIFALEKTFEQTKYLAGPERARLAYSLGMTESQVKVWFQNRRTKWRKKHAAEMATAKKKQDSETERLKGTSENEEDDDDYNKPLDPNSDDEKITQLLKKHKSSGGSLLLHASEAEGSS

[4] = target: T4, Dbx1 (mDbx1) (mouse) (UniProt P52950); experiment: GST co-precipitation, GST-Gro on glutathione-sepharose beads, 35S-labelled class I protein
T4 sequence (looked up): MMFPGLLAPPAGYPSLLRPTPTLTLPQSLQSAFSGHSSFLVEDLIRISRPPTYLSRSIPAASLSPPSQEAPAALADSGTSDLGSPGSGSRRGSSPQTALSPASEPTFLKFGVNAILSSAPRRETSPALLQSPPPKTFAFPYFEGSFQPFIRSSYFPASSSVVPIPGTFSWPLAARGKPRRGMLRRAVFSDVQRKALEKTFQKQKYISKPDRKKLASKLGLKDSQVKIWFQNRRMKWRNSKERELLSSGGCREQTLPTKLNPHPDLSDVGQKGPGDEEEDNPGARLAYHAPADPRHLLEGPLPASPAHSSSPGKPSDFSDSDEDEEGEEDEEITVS

[5] = target: Pax7 (mPax7) (mouse) (UniProt P47239); experiment: as above

Measured: binding

GST-Gro fusion protein (glutathione S-transferase fused to Drosophila Groucho) (from UniProt P16371 1-730)
binds: all assays above
